Laboratory results: PubChem BioAssay AID1671190 (National Center for Advancing Translational Sciences (NCATS), 2021)
Out of some 580,000 compounds screened, about 6,100 (1.1%) were called active. Inconclusive results, whose numbers are uncertain, are shown with a selection of clear calls. Calls come from the whole dose curve; as a rule, active = well fitted inhibition curve with a large enough effect; inconclusive = small, poorly fitted or top-dose-only effect, or another doubt; inactive = no such curve, though single readings can be large or run the other way. A potency beside an inconclusive call is a rough fit, not a confirmed value.

The chains behind the UniProt entries cited, without tags or fusion partners. Where a name states a change or a piece, a line headed by the entry shows the natural chain unless it says otherwise.
UniProt P18054: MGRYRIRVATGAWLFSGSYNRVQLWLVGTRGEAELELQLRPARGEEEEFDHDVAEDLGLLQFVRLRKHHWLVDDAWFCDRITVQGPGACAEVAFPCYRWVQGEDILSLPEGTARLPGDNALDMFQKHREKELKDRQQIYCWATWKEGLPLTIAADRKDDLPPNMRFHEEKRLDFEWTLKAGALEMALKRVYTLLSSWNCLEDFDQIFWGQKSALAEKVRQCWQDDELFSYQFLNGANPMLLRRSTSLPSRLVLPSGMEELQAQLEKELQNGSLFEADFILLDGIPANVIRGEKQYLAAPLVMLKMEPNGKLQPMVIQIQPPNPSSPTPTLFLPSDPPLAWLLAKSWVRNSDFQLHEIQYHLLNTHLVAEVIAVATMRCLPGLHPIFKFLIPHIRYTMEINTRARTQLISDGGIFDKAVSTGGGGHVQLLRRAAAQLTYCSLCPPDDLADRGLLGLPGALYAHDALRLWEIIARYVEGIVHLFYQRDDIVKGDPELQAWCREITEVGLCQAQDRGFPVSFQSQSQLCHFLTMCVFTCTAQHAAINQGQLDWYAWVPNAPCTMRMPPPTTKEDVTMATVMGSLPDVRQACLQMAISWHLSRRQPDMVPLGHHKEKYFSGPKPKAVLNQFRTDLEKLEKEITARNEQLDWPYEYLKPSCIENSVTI

What follows are compounds tested against Polyunsaturated fatty acid lipoxygenase ALOX12 (Homo sapiens) (UniProt P18054) (assay: Primary qHTS assay for inhibitors of human arachidonate 12S-lipoxygenase (ALOX12): Round 2). Details: purified 12hLO, xylenol orange hydroperoxide absorbance; activity change, negative = inhibition: at 108 µM (top of the series) unless noted.
Procedure, shortened: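 Purified human 12hLO at 150 nM in 25 mM Hepes, 0.01% Triton X-100, pH 7.0, preincubated 15 min at room temperature with compound. Reaction started with 40 uM arachidonic acid, 30 min at room temperature. Hydroperoxide measured by Fe-xylenol orange, 573/405 nm absorbance ratio.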
% is set by controls: 0 for no effect and ±100 for the full control effect; potency is the fitted concentration of half-maximal effect.

Row | SMILES | Potency | activity change, negative = inhibition
1 | O=c1c(C(c2ccc(F)cc2)c2c(O)nc3n(c2=O)CCCS3)c(O)nc2n1CCCS2 | inconclusive: 89.1 µM [inhibitor, partial curve, poor fit] | –
2 | COC(=O)C1(NC(=O)c2ccc3c(c2)OCO3)CCCCC1 | – | inactive: 3.9%
3 | Nc1nc(-c2ccco2)c(-c2ccco2)s1 | inconclusive: 2.24 µM [inhibitor, full curve, poor fit] | –
4 | CO[C@@H]1CO[C@H]2[C@@H]1OC[C@@H]2NC(=S)Nc1ccccc1 | inconclusive: 126 µM [inhibitor, partial curve] | –
5 | CC(=O)Nc1nc2c(s1)C[C@@H]1[C@](C)(CO)[C@H](O)CC[C@@]1(C)[C@@H]2CC(=O)N1CCOCC1 | inconclusive: 12.6 µM [inhibitor, full curve] | –
6 | O=c1c(-c2ccccc2)nnc2sc(-c3cccc(F)c3)nn12 | – | inactive: -4.77%
7 | CN(C)c1ccc(C=C2C=C(c3ccccc3)OC2=O)cc1 | inconclusive: 50.1 µM [inhibitor, partial curve, poor fit] | –
8 | COc1cc(/C=N/N2CCCCC2)cc(OC)c1O | inconclusive: 20 µM [inhibitor, partial curve, poor fit] | –
9 | Cc1ccc(CNC(=O)N2CCCCCNC(=O)[C@@H]3CCCC[C@@H]32)cc1 | – | inactive: 39.7%
10 | CNC(=S)N(CCc1cccc(C)c1)Cc1cc2cc(OC)c(OC)cc2[nH]c1=O | inconclusive: 56.2 µM [inhibitor, partial curve, poor fit] | –
11 | CCC(=O)Nc1cc(ON=C(C)C)cc([N+](=O)[O-])c1 | – | inactive: -8.08%
12 | CCC(=O)Nc1ccc(C(=O)OCC(=O)c2ccc(C)c([N+](=O)[O-])c2)cc1 | – | inactive: -14.9%
13 | CC(C)c1ccc(CNC(=O)C(=O)Nc2nccs2)cc1 | – | inactive: -0.994%
14 | O=C(NCCn1c(-c2ccncc2)nc2ccccc21)[C@H]1CCCN1c1nc(CN2CCCCC2)cs1 | – | inactive: -1%
15 | N#Cc1cccc(NC(=S)NCc2ccccc2)c1 | inconclusive: 50.1 µM [inhibitor, partial curve, poor fit] | –
16 | CCN(CC)C(=O)C[C@@H]1c2nc(NC(=O)c3cccs3)sc2C[C@@H]2[C@](C)(CO)[C@H](O)CC[C@]21C | inconclusive: 39.8 µM [inhibitor, full curve, poor fit] | –
17 | COc1ccc(Nc2ccc(S(=O)(=O)N3CCCCC3)cc2[N+](=O)[O-])cc1Cl | – | inactive: -3.44%
18 | CCOc1ccc(CC(=O)N2CCC(Cc3nc(-c4ccc(OC)cc4)no3)CC2)cc1 | inconclusive: 89.1 µM [inhibitor, single point] | –
19 | O=C(COC(=O)CC1Sc2ccccc2NC1=O)NCc1ccccc1 (configuration not stated) | inconclusive: 89.1 µM [inhibitor, single point] | –
20 | O=C(C1CCCN(S(=O)(=O)c2cnc[nH]2)C1)N1CCN(c2ccc(Cl)cc2)CC1 (configuration not stated) | inconclusive: 8.91 µM [inhibitor, full curve, poor fit] | –
21 | CCOC(=O)COc1ccc(/C=C2/NC(=O)NC2=O)cc1Br | inconclusive: 70.8 µM [inhibitor, partial curve, poor fit] | –

Row | SMILES | Potency | activity change, negative = inhibition
22 | O=C(NC(c1ccc(-c2ccccc2)cc1)c1cnccn1)C1CCN(CCN2C(=O)c3ccccc3C2=O)CC1 (configuration not stated) | – | inactive: 10.3%
23 | N#CC1=C(N)N(c2ccccc2)C(=O)C1 | inconclusive: 31.6 µM [inhibitor, partial curve, poor fit] | –
24 | Cc1cc(O)c(C(C)C)cc1NC(=O)Nc1ccc([N+](=O)[O-])cc1 | inconclusive: 79.4 µM [inhibitor, partial curve, poor fit] | –
25 | CCOc1ccc(NC(=S)Nc2ccccc2C2CC2)cc1 | inconclusive: 50.1 µM [inhibitor, partial curve, poor fit] | –
26 | ClC(Cl)(c1nnnn1-c1ccccc1)c1nnnn1-c1ccccc1 | inconclusive: 7.08 µM [inhibitor, full curve] | –
27 | NCc1ccccc1-c1cccc(O)c1 | inconclusive: 112 µM [inhibitor, partial curve, poor fit] | –
28 | O=C(Cc1ccccc1)Nc1c(C(=O)Nc2ccccc2F)oc2ccccc12 | inconclusive: 112 µM [inhibitor, partial curve, poor fit] | –
29 | CSc1ccccc1C(=O)Nc1c(C)cccc1C(C)C | inconclusive: 5.01 µM [inhibitor, full curve, poor fit] | –
30 | CCN(CC(=O)Nc1ccc2c(c1)OCCO2)c1nc(-c2cccnc2)nc2ccccc12 | – | inactive: 0%
31 | Nc1ccccc1N=c1ssnc1Cl | inconclusive: 39.8 µM [inhibitor, partial curve] | –
32 | CCOC(=O)/C(=N\Nc1ccccc1)S(=O)(=O)c1ccccc1 | – | inactive: -7.85%
33 | COC(=O)CNC(=O)N1CCCCC1c1nc(CCOc2ccc(F)cc2)no1 (configuration not stated) | – | inactive: 37%
34 | O=C(Cc1csc(-c2ccccc2)n1)N[C@H](c1ccccn1)C1CC(O)C1 (some centres not stated) | inconclusive: 1.41 µM [inhibitor, full curve, poor fit] | –
35 | CCOC(=O)c1c(CSc2cccs2)n(C)c2cc(Br)c(O)c(CN(C)C)c12 | inconclusive: 50.1 µM [inhibitor, partial curve, poor fit] | –
36 | CCN(CC)S(=O)(=O)c1ccc(OC)c(NC(=O)Cc2cccs2)c1 | inconclusive: 44.7 µM [inhibitor, partial curve] | –
37 | O=C(Nc1sc2c(c1C(=O)NCCCO)CCCC2)c1ccccc1 | inconclusive: 100 µM [inhibitor, partial curve, poor fit] | –
38 | COc1cc(/C=C(/C#N)c2nc3ccccc3[nH]2)cc(Cl)c1OC | inconclusive: 89.1 µM [inhibitor, partial curve, poor fit] | –
39 | COc1ccccc1-c1cc(C(=O)NCCc2ccc(Cl)cc2)c2cnn(C)c2n1 | inconclusive: 89.1 µM [inhibitor, partial curve, poor fit] | –
40 | COc1cc(S(=O)(=O)N2CCC(C(N)=O)CC2)c(OC)cc1Cl | inconclusive: 100 µM [inhibitor, single point] | –
41 | COc1ccc(CCNC(=O)c2cccc(N3C(=O)CCS3(=O)=O)c2)cc1OC | – | inactive: 0.0653%
42 | COC(=O)Cn1c2c(c3cc(C)ccc31)CCCC2NC(C)c1ccccc1 (configuration not stated) | inconclusive: 158 µM [inhibitor, single point] | –

Entries of single compounds as entered above. Order of values: Potency | activity change, negative = inhibition
O=C(Nc1sc2c(c1C(=O)NCCCO)CCCC2)c1ccccc1 is listed as inconclusive: 100 µM [inhibitor, partial curve, poor fit] | –
O=C(NC(c1ccc(-c2ccccc2)cc1)c1cnccn1)C1CCN(CCN2C(=O)c3ccccc3C2=O)CC1 (configuration not stated) is listed as – | inactive: 10.3%
